Laboratory results as given in PMC4381061.
No constants are given. Whether binding was seen depends on the method and setting. In cells and extracts the contact can be indirect. Some results given as binding are weak or reduced against the parent protein; the word gives no strength.

By UniProt entry, the sequences of proteins in these tests, tags left out.
UniProt P12004: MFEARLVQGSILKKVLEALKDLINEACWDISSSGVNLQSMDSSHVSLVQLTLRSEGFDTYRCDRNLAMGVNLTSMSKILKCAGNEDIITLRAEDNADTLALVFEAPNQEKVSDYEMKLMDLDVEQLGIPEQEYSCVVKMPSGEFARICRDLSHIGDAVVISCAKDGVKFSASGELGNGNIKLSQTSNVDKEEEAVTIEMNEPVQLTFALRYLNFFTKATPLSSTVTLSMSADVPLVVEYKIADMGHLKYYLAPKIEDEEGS
UniProt Q460N5: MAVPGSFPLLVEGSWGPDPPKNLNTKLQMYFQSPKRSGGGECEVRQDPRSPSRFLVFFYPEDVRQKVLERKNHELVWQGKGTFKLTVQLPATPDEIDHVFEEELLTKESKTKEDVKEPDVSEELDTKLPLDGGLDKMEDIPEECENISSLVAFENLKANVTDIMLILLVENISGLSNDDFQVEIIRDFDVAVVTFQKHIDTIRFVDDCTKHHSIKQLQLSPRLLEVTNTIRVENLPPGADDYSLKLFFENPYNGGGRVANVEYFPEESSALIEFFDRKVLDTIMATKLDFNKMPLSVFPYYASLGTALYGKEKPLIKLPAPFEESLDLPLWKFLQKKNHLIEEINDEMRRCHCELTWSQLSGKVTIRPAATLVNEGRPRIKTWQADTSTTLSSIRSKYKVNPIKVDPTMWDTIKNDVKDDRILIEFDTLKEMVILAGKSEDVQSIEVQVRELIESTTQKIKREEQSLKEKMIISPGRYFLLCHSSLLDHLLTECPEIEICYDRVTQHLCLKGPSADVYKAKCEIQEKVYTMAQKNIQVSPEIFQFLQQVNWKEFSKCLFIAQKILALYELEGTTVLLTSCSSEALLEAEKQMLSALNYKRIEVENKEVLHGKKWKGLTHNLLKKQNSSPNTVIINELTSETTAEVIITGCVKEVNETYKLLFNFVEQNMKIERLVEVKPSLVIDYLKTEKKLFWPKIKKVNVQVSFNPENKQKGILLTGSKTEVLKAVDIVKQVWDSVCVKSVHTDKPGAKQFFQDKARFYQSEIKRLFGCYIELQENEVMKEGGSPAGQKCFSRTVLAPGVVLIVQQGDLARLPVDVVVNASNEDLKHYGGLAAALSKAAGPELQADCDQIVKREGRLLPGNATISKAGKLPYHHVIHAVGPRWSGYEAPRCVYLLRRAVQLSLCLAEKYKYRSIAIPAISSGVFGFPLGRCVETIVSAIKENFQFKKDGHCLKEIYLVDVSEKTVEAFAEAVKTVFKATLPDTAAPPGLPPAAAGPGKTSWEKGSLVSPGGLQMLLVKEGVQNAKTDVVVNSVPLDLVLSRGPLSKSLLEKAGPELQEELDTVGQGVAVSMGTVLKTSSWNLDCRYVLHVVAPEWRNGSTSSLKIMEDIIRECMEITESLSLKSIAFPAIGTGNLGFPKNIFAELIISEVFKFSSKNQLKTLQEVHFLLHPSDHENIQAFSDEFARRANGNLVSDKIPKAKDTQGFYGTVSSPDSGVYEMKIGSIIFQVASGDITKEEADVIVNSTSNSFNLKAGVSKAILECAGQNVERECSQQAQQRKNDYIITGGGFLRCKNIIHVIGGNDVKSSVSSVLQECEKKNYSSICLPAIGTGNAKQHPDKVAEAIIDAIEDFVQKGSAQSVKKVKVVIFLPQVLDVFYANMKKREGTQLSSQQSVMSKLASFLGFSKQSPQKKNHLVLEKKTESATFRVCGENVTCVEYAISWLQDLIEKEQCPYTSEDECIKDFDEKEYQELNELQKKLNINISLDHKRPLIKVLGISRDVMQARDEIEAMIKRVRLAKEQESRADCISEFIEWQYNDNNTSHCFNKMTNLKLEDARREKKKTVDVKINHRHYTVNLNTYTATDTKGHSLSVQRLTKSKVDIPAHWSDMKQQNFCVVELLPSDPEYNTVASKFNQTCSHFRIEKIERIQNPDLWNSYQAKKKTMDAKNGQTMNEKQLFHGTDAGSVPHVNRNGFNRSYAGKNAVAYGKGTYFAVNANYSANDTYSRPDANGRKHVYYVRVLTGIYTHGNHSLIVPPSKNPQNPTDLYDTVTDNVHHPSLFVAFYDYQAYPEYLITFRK

Assays:
[1] = target: PCNA (human (endogenous in 8988T and HeLa)) (UniProt P12004); assay: co-IP; PCNA immunoprecipitation of endogenous proteins from 8988T cells; also from cells arrested in S-phase (2.5-mM thymidine 18 h, 2 h recovery) or in G2/M (100-ng/ml nocodazole 18 h); PARP14 co-precipitated preferentially in S-phase and much less in G2/M
[2] = target: recombinant GST-tagged PCNA (UniProt P12004); assay: pull-down; recombinant GST-tagged PCNA with native extracts of HeLa cells (Supplementary Figure S2); only the target purified
[3] = target: PCNA (human (endogenous in 8988T and HeLa)) (UniProt P12004); assay: co-IP; endogenous proteins from HeLa cells (Supplementary Figure S1); addition of benzonase does not reduce the interaction (Supplementary Figure S1C)

Measured: binding

PARP14 (mono-ADP-ribosyltransferase PARP14/ARTD8) (from UniProt Q460N5 1-1801)
binds: [1] | [2] | [3]
